Measurements reported in the supplement of paper PMC11006884.
The list shows a part of the results, in another mix than the full data.

The chains behind the UniProt entries cited, without tags or fusion partners. Where a name states a change or a piece, a line headed by the entry shows the natural chain unless it says otherwise.
UniProt Q04206, whole entry, looked up: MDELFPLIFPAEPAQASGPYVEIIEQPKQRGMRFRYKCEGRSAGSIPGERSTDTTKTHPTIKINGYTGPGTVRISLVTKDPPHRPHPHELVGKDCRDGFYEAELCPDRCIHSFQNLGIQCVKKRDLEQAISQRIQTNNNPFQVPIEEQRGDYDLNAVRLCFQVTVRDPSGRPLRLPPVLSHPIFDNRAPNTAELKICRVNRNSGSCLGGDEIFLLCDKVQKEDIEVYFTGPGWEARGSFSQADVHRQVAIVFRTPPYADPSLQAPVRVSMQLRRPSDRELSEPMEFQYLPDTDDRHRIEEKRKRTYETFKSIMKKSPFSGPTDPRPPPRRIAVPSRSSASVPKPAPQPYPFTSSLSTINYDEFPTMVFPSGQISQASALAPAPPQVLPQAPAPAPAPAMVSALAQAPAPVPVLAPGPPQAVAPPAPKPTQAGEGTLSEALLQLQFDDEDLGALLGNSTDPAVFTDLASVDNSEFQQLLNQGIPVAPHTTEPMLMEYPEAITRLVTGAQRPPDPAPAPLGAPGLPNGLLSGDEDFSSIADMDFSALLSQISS
UniProt Q13315: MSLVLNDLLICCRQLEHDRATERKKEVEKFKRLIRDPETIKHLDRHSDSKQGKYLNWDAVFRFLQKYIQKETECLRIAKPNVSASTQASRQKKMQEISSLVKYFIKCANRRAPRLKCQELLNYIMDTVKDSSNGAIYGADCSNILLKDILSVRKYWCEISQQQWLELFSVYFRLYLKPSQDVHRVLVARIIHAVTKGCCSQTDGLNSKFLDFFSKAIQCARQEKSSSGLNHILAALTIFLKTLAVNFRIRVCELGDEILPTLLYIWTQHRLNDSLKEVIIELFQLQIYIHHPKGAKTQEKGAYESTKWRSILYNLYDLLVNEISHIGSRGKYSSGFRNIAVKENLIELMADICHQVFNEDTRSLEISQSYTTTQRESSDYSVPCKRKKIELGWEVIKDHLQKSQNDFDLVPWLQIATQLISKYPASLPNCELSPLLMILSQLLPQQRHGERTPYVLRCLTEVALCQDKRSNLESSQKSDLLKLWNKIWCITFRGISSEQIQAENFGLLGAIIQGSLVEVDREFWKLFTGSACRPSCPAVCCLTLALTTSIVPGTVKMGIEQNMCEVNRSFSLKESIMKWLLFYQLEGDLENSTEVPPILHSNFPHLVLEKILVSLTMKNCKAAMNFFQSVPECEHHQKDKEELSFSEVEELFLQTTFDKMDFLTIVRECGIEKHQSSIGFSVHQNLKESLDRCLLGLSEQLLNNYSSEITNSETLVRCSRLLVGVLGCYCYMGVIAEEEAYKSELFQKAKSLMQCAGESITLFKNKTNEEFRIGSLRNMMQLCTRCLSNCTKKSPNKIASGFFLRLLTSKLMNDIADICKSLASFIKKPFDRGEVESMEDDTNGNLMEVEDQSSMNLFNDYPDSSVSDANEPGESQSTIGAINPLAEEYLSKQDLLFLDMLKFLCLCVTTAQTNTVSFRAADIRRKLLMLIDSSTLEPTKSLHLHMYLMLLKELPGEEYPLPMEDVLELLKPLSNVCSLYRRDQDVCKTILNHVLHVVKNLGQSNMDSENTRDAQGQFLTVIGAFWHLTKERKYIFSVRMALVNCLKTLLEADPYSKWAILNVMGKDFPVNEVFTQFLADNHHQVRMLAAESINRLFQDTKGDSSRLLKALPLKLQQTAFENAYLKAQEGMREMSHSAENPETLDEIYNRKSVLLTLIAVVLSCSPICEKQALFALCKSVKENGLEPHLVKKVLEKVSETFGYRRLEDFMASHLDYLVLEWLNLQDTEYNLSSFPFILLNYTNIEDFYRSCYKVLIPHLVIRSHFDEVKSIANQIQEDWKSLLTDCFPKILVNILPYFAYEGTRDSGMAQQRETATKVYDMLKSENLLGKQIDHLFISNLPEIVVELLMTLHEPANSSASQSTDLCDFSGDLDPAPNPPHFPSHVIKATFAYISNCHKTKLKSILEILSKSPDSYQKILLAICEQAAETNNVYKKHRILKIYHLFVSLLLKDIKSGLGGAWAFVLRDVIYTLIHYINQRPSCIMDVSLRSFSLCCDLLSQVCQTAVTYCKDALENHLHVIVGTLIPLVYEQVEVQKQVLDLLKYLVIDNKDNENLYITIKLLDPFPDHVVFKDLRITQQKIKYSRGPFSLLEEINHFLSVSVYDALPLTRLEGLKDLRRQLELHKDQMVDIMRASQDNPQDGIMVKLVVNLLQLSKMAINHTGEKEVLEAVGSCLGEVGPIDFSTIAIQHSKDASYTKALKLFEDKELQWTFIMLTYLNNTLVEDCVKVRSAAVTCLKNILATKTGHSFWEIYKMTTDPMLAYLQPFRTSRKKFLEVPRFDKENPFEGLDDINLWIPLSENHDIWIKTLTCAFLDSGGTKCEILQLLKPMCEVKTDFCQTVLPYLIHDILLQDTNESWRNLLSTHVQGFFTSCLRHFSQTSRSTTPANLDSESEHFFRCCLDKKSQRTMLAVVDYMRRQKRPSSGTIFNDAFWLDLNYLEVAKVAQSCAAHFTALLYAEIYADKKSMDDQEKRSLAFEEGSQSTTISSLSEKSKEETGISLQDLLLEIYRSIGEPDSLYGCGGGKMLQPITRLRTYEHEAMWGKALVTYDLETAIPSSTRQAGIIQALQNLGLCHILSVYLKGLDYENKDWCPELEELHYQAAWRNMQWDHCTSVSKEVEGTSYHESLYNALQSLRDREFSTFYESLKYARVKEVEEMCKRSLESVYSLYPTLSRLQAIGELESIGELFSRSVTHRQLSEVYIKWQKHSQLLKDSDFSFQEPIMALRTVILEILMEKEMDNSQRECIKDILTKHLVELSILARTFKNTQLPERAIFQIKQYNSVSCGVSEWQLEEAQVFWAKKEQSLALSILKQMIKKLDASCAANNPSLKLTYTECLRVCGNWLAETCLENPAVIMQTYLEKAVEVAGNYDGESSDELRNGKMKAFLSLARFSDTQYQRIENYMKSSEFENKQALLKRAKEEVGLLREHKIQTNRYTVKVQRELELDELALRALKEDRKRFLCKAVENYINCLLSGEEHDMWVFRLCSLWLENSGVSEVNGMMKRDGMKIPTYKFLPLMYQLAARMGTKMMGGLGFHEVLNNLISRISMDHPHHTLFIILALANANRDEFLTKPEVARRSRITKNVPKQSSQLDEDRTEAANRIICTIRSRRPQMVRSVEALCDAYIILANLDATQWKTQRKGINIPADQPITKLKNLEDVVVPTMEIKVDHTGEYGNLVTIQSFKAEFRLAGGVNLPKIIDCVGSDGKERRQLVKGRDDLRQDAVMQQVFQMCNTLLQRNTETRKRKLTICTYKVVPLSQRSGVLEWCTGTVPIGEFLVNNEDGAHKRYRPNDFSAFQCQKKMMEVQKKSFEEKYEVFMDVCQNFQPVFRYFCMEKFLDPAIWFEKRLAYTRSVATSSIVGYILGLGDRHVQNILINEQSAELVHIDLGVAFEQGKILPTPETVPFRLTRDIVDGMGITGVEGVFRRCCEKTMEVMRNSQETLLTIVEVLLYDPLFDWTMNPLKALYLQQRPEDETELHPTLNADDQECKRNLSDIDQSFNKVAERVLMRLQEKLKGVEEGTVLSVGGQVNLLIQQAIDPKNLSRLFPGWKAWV
UniProt Q12931: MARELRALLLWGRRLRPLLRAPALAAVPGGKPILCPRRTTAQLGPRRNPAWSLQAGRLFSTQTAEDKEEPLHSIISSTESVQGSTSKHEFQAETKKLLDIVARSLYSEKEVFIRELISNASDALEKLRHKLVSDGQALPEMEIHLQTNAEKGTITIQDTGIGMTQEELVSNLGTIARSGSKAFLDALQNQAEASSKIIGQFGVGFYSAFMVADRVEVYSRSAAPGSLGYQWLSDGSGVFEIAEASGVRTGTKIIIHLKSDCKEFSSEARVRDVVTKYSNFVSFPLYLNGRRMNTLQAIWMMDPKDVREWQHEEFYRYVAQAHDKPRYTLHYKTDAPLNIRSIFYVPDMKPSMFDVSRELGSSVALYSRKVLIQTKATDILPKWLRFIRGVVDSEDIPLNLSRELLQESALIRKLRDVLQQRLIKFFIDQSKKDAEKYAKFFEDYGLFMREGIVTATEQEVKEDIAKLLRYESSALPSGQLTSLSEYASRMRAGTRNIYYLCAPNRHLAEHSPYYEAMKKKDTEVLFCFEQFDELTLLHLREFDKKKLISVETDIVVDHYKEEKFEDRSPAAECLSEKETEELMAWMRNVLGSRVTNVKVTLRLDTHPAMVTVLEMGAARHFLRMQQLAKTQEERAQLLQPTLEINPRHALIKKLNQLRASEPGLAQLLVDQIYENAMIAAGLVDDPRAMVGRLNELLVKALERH
UniProt Q13242, whole entry, looked up: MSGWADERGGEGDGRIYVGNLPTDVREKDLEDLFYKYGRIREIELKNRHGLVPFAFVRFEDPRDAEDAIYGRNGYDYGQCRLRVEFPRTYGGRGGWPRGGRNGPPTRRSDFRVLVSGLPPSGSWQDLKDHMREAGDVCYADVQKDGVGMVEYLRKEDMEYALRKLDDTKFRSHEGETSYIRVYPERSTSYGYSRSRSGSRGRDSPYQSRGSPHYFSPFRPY
UniProt Q13263: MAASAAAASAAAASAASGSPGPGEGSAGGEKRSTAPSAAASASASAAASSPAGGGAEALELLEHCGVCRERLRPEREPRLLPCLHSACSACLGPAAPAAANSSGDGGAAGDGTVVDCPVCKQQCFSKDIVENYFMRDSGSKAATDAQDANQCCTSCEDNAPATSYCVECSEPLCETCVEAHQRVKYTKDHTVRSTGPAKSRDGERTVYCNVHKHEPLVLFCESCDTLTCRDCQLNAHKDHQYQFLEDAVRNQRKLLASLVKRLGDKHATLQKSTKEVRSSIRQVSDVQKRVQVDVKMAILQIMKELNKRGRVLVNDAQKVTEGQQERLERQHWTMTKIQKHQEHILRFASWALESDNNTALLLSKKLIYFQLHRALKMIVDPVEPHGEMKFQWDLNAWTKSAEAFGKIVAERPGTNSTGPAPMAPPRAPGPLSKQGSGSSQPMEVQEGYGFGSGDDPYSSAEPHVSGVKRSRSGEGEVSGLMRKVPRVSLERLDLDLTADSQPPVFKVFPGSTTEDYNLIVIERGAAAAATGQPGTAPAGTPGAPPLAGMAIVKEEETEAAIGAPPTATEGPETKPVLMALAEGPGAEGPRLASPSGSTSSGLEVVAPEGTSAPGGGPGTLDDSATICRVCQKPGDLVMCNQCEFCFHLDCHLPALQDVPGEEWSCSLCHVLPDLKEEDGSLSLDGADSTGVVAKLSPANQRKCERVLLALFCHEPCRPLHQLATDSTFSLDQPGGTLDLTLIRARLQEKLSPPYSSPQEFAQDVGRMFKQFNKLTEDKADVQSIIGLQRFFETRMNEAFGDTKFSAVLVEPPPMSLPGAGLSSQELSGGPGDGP
UniProt Q13427: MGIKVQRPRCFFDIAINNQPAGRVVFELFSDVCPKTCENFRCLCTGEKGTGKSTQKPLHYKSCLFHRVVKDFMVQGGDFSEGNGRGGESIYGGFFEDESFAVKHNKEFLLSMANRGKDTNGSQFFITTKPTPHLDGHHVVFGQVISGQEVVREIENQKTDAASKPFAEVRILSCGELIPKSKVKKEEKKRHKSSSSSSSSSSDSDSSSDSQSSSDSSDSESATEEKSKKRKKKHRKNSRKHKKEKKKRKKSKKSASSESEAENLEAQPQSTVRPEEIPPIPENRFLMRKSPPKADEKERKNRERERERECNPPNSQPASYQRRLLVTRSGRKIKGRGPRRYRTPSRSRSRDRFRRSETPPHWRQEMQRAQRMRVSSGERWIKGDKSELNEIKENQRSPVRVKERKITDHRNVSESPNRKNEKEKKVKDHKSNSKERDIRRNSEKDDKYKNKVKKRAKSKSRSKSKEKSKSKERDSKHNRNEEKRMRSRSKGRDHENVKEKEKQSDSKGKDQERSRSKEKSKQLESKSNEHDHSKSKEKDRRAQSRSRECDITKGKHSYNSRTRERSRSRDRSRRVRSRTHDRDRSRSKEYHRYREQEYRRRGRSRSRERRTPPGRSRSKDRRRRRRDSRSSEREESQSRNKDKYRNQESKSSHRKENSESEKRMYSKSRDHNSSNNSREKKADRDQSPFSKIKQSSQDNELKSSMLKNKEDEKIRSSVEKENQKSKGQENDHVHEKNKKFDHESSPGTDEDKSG

Compound: COC(=O)C#Cc1ccccc1 [methyl 3-phenylpropiolate]
Experiment: log2 ratio of iodoacetamide-alkyne labeling of the cysteine site, DMSO over compound (competition); higher = stronger covalent engagement of the cysteine by the compound, active = 1 or more
Settings: 500 µM; treatment time 1 h; system: HEK293T cell lysate
Procedure, shortened: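 The log2 competition ratio per cysteine is defined as mean reporter intensity in control channels over mean reporter intensity in compound channels. Lysate from HEK293T cells (2 mg/mL) received electrophile (500 µM) or vehicle for 1 h at ambient temperature, followed by iodoacetamide alkyne for 1 h. Samples were clicked to sCIP-TMT reagents, pooled, trypsin-digested overnight at 37 °C, streptavidin-enriched, acid-eluted and run on Orbitrap Eclipse LC-MS/MS with FAIMS, with quantification in FragPipe. Three replicates with duplicate channels were used, and any cysteine quantified in only one replicate was excluded.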

log2 ratio of iodoacetamide-alkyne labeling, inactive:
GTF3C1 C1783 (UniProt Q12789) 0.152, RELA C105 (UniProt Q04206) 0.896, MTA1 C512 (UniProt Q13330) 0.481, CTBP1 C312 (UniProt Q13363) 0.128, BPTF C20 (UniProt Q12830) 0.165, ATM C12 (UniProt Q13315) 0.177, TRAP1 C573 (UniProt Q12931) 0.154, UniProt Q13242_C80 -0.0295, DST C4439 (UniProt Q03001) 0.187, TBL3 C613 (UniProt Q12788) 0.77, TRIM28 C232 (UniProt Q13263) 0.0352, DST C5527 (UniProt Q03001) -0.0122, PPIG C310 (UniProt Q13427) 0.195, AHNAK C1833 (UniProt Q09666) 0.311, BPTF C1357 (UniProt Q12830) 0.53
